From publication doi:10.1101/2025.10.15.682604
No constants are given. Whether binding was seen depends on the method and setting. In cells and extracts the contact can be indirect. Some results given as binding are weak or reduced against the parent protein; the word gives no strength.

Amino acid sequences for entries named in this document (tags omitted).
UniProt Q9UNE7: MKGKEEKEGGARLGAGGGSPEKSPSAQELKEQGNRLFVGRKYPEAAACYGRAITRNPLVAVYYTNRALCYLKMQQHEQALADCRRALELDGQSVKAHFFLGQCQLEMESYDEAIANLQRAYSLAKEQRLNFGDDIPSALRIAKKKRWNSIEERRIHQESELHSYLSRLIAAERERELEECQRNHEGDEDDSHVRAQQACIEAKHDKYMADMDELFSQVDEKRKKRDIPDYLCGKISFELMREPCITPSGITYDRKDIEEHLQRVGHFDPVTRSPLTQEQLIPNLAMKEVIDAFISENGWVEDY
UniProt P31749: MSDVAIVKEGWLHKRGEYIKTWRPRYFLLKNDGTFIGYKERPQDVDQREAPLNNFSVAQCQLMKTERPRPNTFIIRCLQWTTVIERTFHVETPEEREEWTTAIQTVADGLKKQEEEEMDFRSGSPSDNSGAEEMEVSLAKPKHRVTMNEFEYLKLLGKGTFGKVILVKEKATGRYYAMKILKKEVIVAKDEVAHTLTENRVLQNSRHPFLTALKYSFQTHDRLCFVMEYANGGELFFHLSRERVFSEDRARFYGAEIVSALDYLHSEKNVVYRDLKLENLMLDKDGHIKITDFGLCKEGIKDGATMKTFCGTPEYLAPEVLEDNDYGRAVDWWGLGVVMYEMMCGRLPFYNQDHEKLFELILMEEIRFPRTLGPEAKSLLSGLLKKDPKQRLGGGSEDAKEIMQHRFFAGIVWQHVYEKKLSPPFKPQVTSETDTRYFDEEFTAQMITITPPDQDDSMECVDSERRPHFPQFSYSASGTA

Molecular target: CHIP (C-terminus of Hsc70-Interacting Protein), FLAG-tagged (UniProt Q9UNE7)
Assay: co-IP

For AKT (from UniProt P31749 1-480), the binding was “binds”.
